Structures were worked out from names or drawings and are uncertain.
Target: Human HDAC6 (Homo sapiens (Human), UniProt Q9UBN7)
Test: HDAC6 fluorogenic peptide deacetylation inhibition assay
Assay type: biochemical

By UniProt entry, the sequences of proteins in these tests, tags left out.
UniProt Q9UBN7, whole entry: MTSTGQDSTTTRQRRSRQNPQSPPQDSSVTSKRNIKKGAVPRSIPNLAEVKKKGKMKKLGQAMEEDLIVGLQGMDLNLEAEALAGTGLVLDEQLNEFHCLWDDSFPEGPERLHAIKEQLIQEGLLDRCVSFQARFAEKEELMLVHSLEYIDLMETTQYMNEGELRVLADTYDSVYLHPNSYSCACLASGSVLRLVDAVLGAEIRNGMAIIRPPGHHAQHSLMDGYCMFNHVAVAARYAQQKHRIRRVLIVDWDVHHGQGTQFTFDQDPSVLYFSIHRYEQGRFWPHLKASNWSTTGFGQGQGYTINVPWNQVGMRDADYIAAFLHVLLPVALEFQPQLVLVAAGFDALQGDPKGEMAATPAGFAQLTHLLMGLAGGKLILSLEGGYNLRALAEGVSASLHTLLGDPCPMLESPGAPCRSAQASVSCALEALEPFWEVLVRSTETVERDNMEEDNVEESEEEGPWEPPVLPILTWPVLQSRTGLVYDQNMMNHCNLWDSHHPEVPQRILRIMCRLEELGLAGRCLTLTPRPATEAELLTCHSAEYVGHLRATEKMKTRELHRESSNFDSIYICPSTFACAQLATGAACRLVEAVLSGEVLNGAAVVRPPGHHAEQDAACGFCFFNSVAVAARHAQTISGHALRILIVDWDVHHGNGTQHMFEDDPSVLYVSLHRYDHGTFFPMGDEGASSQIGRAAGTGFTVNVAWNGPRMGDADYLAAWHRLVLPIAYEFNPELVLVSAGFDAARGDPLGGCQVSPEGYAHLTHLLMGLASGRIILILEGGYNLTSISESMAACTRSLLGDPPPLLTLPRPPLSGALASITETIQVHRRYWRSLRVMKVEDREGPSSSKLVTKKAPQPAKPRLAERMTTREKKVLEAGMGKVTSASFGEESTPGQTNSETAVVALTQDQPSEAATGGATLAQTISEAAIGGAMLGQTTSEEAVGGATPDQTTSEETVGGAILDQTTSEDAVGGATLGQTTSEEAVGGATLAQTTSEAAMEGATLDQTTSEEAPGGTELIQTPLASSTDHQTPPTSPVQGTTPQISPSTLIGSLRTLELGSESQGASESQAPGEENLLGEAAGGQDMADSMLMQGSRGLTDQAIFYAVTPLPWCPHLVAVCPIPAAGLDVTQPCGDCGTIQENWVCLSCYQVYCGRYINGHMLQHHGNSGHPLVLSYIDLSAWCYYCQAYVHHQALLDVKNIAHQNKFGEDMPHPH

Row | SMILES | BEI (binding efficiency index, BEI=pIC50/MW, MW in kDa) | HDAC6 Selectivity (HDAC1/HDAC6) (ratio HDAC1 IC50/HDAC6 IC50)
1 | O=C(NO)c1ccc(Cn2cc(Cc3ccccc3)c3ccccc32)cc1 | 20.9 | 
2 | O=C(NO)c1ccc(CN(c2ccccc2)c2ccccc2)cc1 |  | 1.48
